Reference: paper PMC6404607
For at least one entry, the source does not settle the construct or the ends of the probe. For some of these results: No signal at the amounts used counts as a negative.

Sequences of proteins named here, by UniProt entry; tags and fusion partners are left off. Residues count along the entry.
UniProt Q8MSV2, 223-590: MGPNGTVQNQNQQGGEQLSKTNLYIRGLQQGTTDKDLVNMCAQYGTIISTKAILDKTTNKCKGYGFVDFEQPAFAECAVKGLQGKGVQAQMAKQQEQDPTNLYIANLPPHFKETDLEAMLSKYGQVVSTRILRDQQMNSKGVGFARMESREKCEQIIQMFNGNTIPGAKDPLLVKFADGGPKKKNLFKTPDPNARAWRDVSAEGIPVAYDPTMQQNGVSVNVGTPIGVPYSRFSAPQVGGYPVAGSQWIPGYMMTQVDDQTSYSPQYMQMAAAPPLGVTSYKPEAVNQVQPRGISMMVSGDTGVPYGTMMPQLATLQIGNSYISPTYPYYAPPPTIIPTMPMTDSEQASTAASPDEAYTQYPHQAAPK
UniProt Q8MSV2, 223-590 Y286A/F288A/F291A/V364A/F366A/R368A: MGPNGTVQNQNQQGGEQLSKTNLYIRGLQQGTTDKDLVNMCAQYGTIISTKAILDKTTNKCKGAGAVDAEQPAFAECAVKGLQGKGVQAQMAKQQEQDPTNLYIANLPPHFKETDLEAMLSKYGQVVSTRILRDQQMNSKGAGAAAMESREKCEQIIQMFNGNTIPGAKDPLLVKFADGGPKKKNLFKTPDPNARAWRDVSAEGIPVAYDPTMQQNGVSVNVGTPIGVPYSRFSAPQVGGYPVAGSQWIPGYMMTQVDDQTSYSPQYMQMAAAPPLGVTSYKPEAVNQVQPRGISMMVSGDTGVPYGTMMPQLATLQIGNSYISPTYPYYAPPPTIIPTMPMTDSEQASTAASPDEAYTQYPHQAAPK

Tests used:
[1] = target: Shep E (wild type) (UniProt Q8MSV2); experiment: EMSA; settings: 10 ug tRNA competitor, 47 pmol protein, 10 pmol probe; EMSA: 10% glycerol, 20 mM NaCl, 60 mM KCl, 20 mM HEPES pH 7.5, 10 ug tRNA; probe heated 95 C 2 min and ice-cooled; 30 min on ice with protein; 6% GTG gel at 4 C; recombinant protein; protein details: His (stated N-terminal, pET101); label: 32P-UTP (internal); probe letters rebuilt from the primers and the genome
[2] = target: Shep E RRM mutant Y286A,F288A,F291A,V364A,F366A,R368A (UniProt Q8MSV2); experiment: EMSA; settings: 10 ug tRNA competitor, 47 pmol protein, 10 pmol probe; EMSA: 10% glycerol, 20 mM NaCl, 60 mM KCl, 20 mM HEPES pH 7.5, 10 ug tRNA; probe heated 95 C 2 min and ice-cooled; 30 min on ice with protein; 6% GTG gel at 4 C; recombinant protein; protein details: His (N-terminal, pET101); label: 32P-UTP (internal); probe letters rebuilt from the primers and the genome

Sequence	binding result [1]	binding result [2]
GGGAGACUCCGACGACGAGGAGAUUGCAACCACUUCAGCGGCGGCUGUCAAAAUGAAGCUGAAACUGAACAAAUCUCUGGCUAGUGCGCCCGCUACGCCCACGCAAUCAUCGUCGAAUGUGAGCAGCGGAGCGGCUACCACAUCCAAGAAGCAGACGCGUCGCAAGCGCUCCCAAAAGAAGUACACUAUUUCAGACGAUGACGACGAUGACAUGGACUAGCUACCGUUGGGAGUGAUCUUCAAGCGCGGAUCGUCGGAUGUCGAAGGCAUGGGCAAUUGAUUAUUAAUUAGUUUAAGUUUUACUUUCAAGGACGAUGCUUACCAAAACCCUAGCCUACGGGUUUUUUUAACCAUCUAACCUAUCAUGCUAUCACUUUUAUCUAUACUAAUUUUCUAGUUGUAGGUUCUCGAUUAAGUUUCCUAUUCAAUUAUUUUCGCACACACCAUUUAUUUCUCCC [brm 455 nt ssRNA fragment]	binds	no binding
GGGAGAGAAGCAAGUAGCAGGCGAGAAAAUGAACCGGAAACCGUAGAACUAGAACAAAAGAAUGGAAAGCAAACACGUAGUGAAGAAGCGAUCUAGAACUAAGUAAGCUGAUUAAGAUGCGCAAGCGAACAAGAAAUCGUGUCCUAGGCCCAAAAAAUGCAAAACAAAAUGGAUGGAUCGAUUACUCGGGAUUACUCAAGUUUUGAGCUUAGUGACGAAUCACUUGCAUGGGCAAUGGGCUGGUGUAGUCUAUAUGGAUUCUAUAGCUAUAUCAAAUACAUGAUGGGUCUUCAAAGAAUUAUCCCAGUUUAUAUUGCUUGUAAUUGCUUAUGGAUUACGCCGCCCAUUUCUGGGAAUAUCCAUUCAAUCCAUAGCAAUCGAUCCAUCCUAUUAUACAUAUAUAUAUUUAUAUAUUAUUAAUUCUCUCUUUUAAGUAGGUUCCGCUCCCCUUUGAAAAC [CG10555 470 nt ssRNA fragment]	binds	no binding
